Taken from: PubChem BioAssay AID1259254 (NCATS, 2017)
Assay: 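Genome-wide screen for genes that prevent DNA re-replication in cancer cells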 (primary screen). Cell system: human HCT116 colorectal cancer cells. Reagents: single siRNA against human genes. Timing: 3 days. Read-out: 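Imaged Hoechst DNA stain sorts each cell into a cycle phase by DNA amount; per plate, G2 fraction set to 0% for non-targeting and 100% for GMNN siRNA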. Reading the numbers: G2 robust z-score and G2 cells, % of GMNN control: higher = more G2 cells, more excess DNA replication. Call rule: 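Active siRNAs have a G2 robust z of 5 or more median absolute deviations over the median, which in these data means about 38% or higher of GMNN control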.
The whole screen tested about 59,000 reagents; shown is an unselected part. Over the whole deposit, about 1,550 (2.6%) are marked active. 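G2 share is only a proxy for re-replication; each gene was hit by three separate siRNAs, and active genes were retested.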 A number with no mark means an inactive call. Reagents against one gene are numbered here. Not all columns of the deposit are shown. No sequences are given here. The record does not give: the amount of reagent.

{"Target gene": "FPGT", "siRNA no.": 1, "G2 robust z-score": 0.398, "G2 cells, % of GMNN control": 5.77}
{"Target gene": "FPGT", "siRNA no.": 2, "G2 robust z-score": 1.85, "G2 cells, % of GMNN control": 16}
{"Target gene": "FPGT", "siRNA no.": 3, "G2 robust z-score": 0.18, "G2 cells, % of GMNN control": 4.23}
{"Target gene": "CDON", "siRNA no.": 1, "G2 robust z-score": -0.898, "G2 cells, % of GMNN control": -3.35}
{"Target gene": "CDON", "siRNA no.": 2, "G2 robust z-score": 0.643, "G2 cells, % of GMNN control": 7.49}
{"Target gene": "CDON", "siRNA no.": 3, "G2 robust z-score": 1.59, "G2 cells, % of GMNN control": 14.2}
{"Target gene": "PUS7L", "siRNA no.": 1, "G2 robust z-score": -0.802, "G2 cells, % of GMNN control": -2.67}
{"Target gene": "PUS7L", "siRNA no.": 2, "G2 robust z-score": 0.832, "G2 cells, % of GMNN control": 8.82}
{"Target gene": "PUS7L", "siRNA no.": 3, "G2 robust z-score": -0.999, "G2 cells, % of GMNN control": -4.06}
{"Target gene": "LINC03122", "siRNA no.": 1, "G2 robust z-score": -0.455, "G2 cells, % of GMNN control": -0.237}
{"Target gene": "LINC03122", "siRNA no.": 2, "G2 robust z-score": -0.617, "G2 cells, % of GMNN control": -1.38}
{"Target gene": "LINC03122", "siRNA no.": 3, "G2 robust z-score": -1.02, "G2 cells, % of GMNN control": -4.19}
